These results are taken from paper PMC5678581 (BMC Biology, 2017).

Sequences of proteins named here, by UniProt entry; tags and fusion partners are left off. A change or cut given only in a name is not applied to a line headed by its entry.
UniProt Q14258: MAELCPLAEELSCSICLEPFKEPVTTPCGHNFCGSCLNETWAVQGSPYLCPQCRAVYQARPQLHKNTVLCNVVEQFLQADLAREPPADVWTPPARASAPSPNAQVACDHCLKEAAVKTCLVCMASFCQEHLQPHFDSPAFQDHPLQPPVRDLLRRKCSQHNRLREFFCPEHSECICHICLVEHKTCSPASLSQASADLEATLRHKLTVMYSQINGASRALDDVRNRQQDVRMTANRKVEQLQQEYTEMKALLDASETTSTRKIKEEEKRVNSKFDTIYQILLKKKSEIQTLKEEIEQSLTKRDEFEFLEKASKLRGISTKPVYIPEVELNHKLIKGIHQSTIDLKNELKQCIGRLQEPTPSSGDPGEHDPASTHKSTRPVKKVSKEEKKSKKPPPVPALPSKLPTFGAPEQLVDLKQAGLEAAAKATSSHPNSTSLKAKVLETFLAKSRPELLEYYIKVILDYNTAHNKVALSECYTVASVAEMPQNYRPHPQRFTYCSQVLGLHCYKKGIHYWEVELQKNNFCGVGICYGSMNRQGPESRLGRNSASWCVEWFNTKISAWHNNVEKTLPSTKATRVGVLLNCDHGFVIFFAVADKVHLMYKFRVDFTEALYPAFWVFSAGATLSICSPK

These are yes or no findings as the source states them, for the method shown. Binding seen in cells or lysates may run through a third protein.

The target in this assay is T7-tagged TRIM25ΔCC (human) (UniProt Q14258). Kind of assay: co-IP; extracts of HeLa TRIM25 KO cells co-overexpressing T7-tagged and EGFP-tagged TRIM25; anti-T7 antibody on protein A agarose; western blot with anti-TRIM25 and anti-T7 antibodies.

Consider “EGFP-tagged TRIM25 (wild type) (from UniProt Q14258 1-630)”, for which the binding entry is “no binding”.
